Assay results as given in the supplement of paper PMC12889115.
The other results are listed elsewhere or left out. These are raw signals, not scaled to a control.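 Primary screen: polymyxin B was added at a level permeabilizing Salmonella outer membranes while sparing inner membranes. DMSO wells, both with and without polymyxin B, established maximum growth. Plate-to-plate variation meant each plate was ranked on its own, and the lowest-OD600 compounds were selected as hits.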

Test system: Salmonella enterica serovar Typhimurium SL1344
Assay: bacterial growth OD600 after 18 h with compound and polymyxin B; higher = more bacterial growth (less inhibition)
Conditions: 50 µM, Mueller-Hinton broth

C=CCC(O)(CC=C)C(C)NC(=O)CCC1(Cc2cc(OC)ccc2F)CCC(=O)N1 (stereo unspecified)
bacterial growth OD600 (polymyxin B 0.75 µg/mL): 0.851

CN(Cc1ccccc1Cl)C(=O)c1coc(COc2ccc3c(c2)OCO3)n1
bacterial growth OD600 (polymyxin B 1 µg/mL): 0.649

CCc1ccc(CN(C)c2nncc(-c3cc4ccccc4o3)n2)nc1
bacterial growth OD600 (polymyxin B 1 µg/mL): 0.007

O=C(/C=C/c1ccco1)N1CC[C@@H](N2CCN(c3ccccc3F)CC2)[C@H](O)C1
bacterial growth OD600 (polymyxin B 1 µg/mL): 0.827

CN(CCn1ccnc1)C(=O)CC(c1ccccc1)c1ccccc1Cl (stereo unspecified)
bacterial growth OD600 (polymyxin B 1 µg/mL): 0.855

Cc1cc(CN(C)C(=O)c2cc(Cn3c(C)nc4ccccc43)[nH]n2)on1
bacterial growth OD600 (polymyxin B 1 µg/mL): 1.05

CSCCCNC(=O)C1CCC(=O)N(Cc2ccccn2)C1 (stereo unspecified)
bacterial growth OD600 (polymyxin B 1 µg/mL): 0.85

CC(=O)N1CCN(c2ccc(-c3nc(CCCc4ccccc4)no3)cn2)CC1
bacterial growth OD600 (polymyxin B 0.75 µg/mL): 0.229

Cc1[nH]c2ccc(CNC3CCN(Cc4ccccn4)CC3)cc2c1C
bacterial growth OD600 (polymyxin B 0.75 µg/mL): 0.96

CCOC(=O)C1(CCCc2ccccc2)CCCN(C(=O)c2cc(C)nc(C)n2)C1 (stereo unspecified)
bacterial growth OD600 (polymyxin B 1 µg/mL): 1.09

O=C(NCCc1ccco1)c1ccc2nc(C3CCCCC3)oc2c1
bacterial growth OD600 (polymyxin B 0.75 µg/mL): 0.664

O=C(NC1CCCC1)c1ccc(N2CCC(NCc3cnn(-c4ccccc4)n3)CC2)cc1
bacterial growth OD600 (polymyxin B 0.75 µg/mL): 0.01

O=S(=O)(NCC1CCCN(Cc2cc[nH]n2)C1)c1cccc2cccnc12 (stereo unspecified)
bacterial growth OD600 (polymyxin B 0.75 µg/mL): 1.01

Cc1c(C(=O)NCc2ccc(N3CCOCC3)cc2)oc2c(F)cccc12
bacterial growth OD600 (polymyxin B 0.75 µg/mL): 0.064

CCN(Cc1ccc(COC)o1)CC1CCCN(CCc2cccc(F)c2)C1 (stereo unspecified)
bacterial growth OD600 (polymyxin B 1 µg/mL): 0.874

CC(C)C1CC(C(=O)NCCN2Cc3ccccc3OC(c3ccsc3)C2)CCO1 (stereo unspecified)
bacterial growth OD600 (polymyxin B 0.75 µg/mL): 0.722

COc1ccc(CC2(CCC(=O)NCCc3ccc(Cl)cc3)CCC(=O)N2)c(F)c1 (stereo unspecified)
bacterial growth OD600 (polymyxin B 0.75 µg/mL): 0.928

Cc1cc(C(=O)NC2CC(=O)N(CC3CCCCC3)C2)nc(C)n1 (stereo unspecified)
bacterial growth OD600 (polymyxin B 1 µg/mL): 1.1

Cc1ccccc1C(CC(=O)N1CCC(O)CC1)c1ccccc1 (stereo unspecified)
bacterial growth OD600 (polymyxin B 1 µg/mL): 0.891

CCOC(=O)c1csc(CCNC(=O)CCC2(Cc3ccc(OC)cc3F)CCC(=O)N2)n1 (stereo unspecified)
bacterial growth OD600 (polymyxin B 0.75 µg/mL): 0.761

CSCCC(=O)N1CCC2(CCCN(Cc3ccc(F)c(F)c3)C2=O)C1 (stereo unspecified)
bacterial growth OD600 (polymyxin B 1 µg/mL): 0.997

CN1CCCC1CCNC(=O)C1(N2CCCCC2)Cc2ccccc2C1 (stereo unspecified)
bacterial growth OD600 (polymyxin B 0.75 µg/mL): 0.845

CC(O)CNC(=O)c1ccc(OC2CCN(CCc3ccccc3)CC2)cc1 (stereo unspecified)
bacterial growth OD600 (polymyxin B 1 µg/mL): 1.29

CCn1cc(CN2CCOc3ccc(C4=Cc5ccccc5C4)cc3C2)c(C)n1
bacterial growth OD600 (polymyxin B 0.75 µg/mL): 0.004

Cc1nn(C)cc1CN1CCOc2ccc(C3=Cc4ccccc4CC3)cc2C1
bacterial growth OD600 (polymyxin B 0.75 µg/mL): 0.004

COCCCN1C(=O)CC(CC(=O)NCC2(c3ccccc3)CCOCC2)(c2ccccc2)C1=O (stereo unspecified)
bacterial growth OD600 (polymyxin B 0.75 µg/mL): 0.863

CCCCN(C)C(=O)CC1C(=O)NCCN1Cc1ccc(OC)c(OC)c1 (stereo unspecified)
bacterial growth OD600 (polymyxin B 0.75 µg/mL): 0.856

CCOC(=O)C1(CCc2ccccc2)CCCN(Cc2ccc(OC)c(O)c2)C1 (stereo unspecified)
bacterial growth OD600 (polymyxin B 0.75 µg/mL): 0.914

CCn1cc(CNc2ccc(-c3nc(COC)no3)cn2)cn1
bacterial growth OD600 (polymyxin B 1 µg/mL): 1.03

COc1cccc(CN2CCc3nnc(C(CC(C)C)NC(=O)c4cc(C)cc(C)c4)n3CC2)c1O (stereo unspecified)
bacterial growth OD600 (polymyxin B 0.75 µg/mL): 0.038

Cc1ncc(-c2ccc(F)cc2)c(C2CCCN(C(=O)c3ccc(C(F)(F)F)cc3)C2)n1 (stereo unspecified)
bacterial growth OD600 (polymyxin B 0.75 µg/mL): 0.002
